Values from PubChem BioAssay AID652243 (Drosophila RNAi Screening Center, 2013).

- Screen: 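Knock-downs that decrease or increase androgen receptor reporter signal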 (primary screen)
- Cell system: Drosophila S2R+ cells
- Knock-down reagent: long dsRNA against Drosophila genes
- Time to read-out: 72 h (48 h, then 24 h hormone)
- Treatment: synthetic androgen R1881 at 10 nM for 24 h
- Read-out: 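Firefly light from an androgen-responsive reporter and Renilla control light per well, raw and unnormalised, for each of two replicates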
- Direction: firefly reporter light: higher = more light from androgen-responsive reporter; Renilla control light: higher = more constitutive control signal (cell number, transfection)
- Hit rule: 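Hit when the log firefly-to-Renilla ratio dropped or increased by a fixed fold versus the mean of GFP or LacZ controls across duplicate plates; lowering cut given as 1.5 and as 3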
- Meaning of the calls: active = hit: reporter lowered or raised; inactive = no hit
The deposit covers about 24,000 reagents; this is an unselected part of those that have a named target and a result. Over the whole deposit, 246 (1%) got an active call. 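Plates not normalised; calls are printed but the firefly/Renilla ratio behind them is not deposited; fold cut for lowering reported inconsistently.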 Raw values are not corrected between plates. Reagents against one gene are numbered here. Not given: the amount of reagent.

The opening 3 entries as a preview:
| Target gene | dsRNA no. | firefly reporter light, replicate 1 | firefly reporter light, replicate 2 | Renilla control light, replicate 1 | Renilla control light, replicate 2 | outcome |
| --- | --- | --- | --- | --- | --- | --- |
| CG5961 | 1 | 46272 | 1.45e5 | 6.06e5 | 1.29e6 | inactive |
| CG5961 | 2 | 2.58e5 | 2.77e5 | 6.41e5 | 6.96e5 | inactive |
| bnk | 1 | 1.45e5 | 1.27e5 | 1.69e6 | 2.60e6 | inactive |

Results, from the start:
| Target gene | dsRNA no. | firefly reporter light, replicate 1 | firefly reporter light, replicate 2 | Renilla control light, replicate 1 | Renilla control light, replicate 2 | outcome |
| --- | --- | --- | --- | --- | --- | --- |
| CG5961 | 1 | 46272 | 1.45e5 | 6.06e5 | 1.29e6 | inactive |
| CG5961 | 2 | 2.58e5 | 2.77e5 | 6.41e5 | 6.96e5 | inactive |
| bnk | 1 | 1.45e5 | 1.27e5 | 1.69e6 | 2.60e6 | inactive |
| bnk | 2 | 6.17e5 | 6.64e5 | 1.08e6 | 1.15e6 | inactive |
| E(spl)m3-HLH | 1 | 4.40e5 | 8.45e5 | 1.40e6 | 2.46e6 | inactive |
| E(spl)m3-HLH | 2 | 2.83e5 | 6.79e5 | 9.30e5 | 1.39e6 | inactive |
| Dgk | 1 | 39912 | 22683 | 1.81e5 | 2.08e5 | active |
| Dgk | 2 | 1.35e5 | 2.52e5 | 3.90e5 | 3.94e5 | inactive |
| Dgk | 3 | 3.92e5 | 3.54e5 | 2.50e6 | 1.94e6 | inactive |
| Dgk | 4 | 4.71e5 | 6.32e5 | 1.89e6 | 1.96e6 | active |
| Dgk | 5 | 3.11e5 | 3.00e5 | 4.07e5 | 3.44e5 | inactive |
| CG7639 | 1 | 31085 | 56669 | 8.23e5 | 8.23e5 | inactive |
| CG16852 | 1 | 3.19e5 | 3.10e5 | 1.45e6 | 1.42e6 | inactive |
| CG14540 | 1 | 1.15e5 | 1.35e5 | 1.76e6 | 2.24e6 | inactive |
| CG14540 | 2 | 8.27e5 | 1.17e6 | 9.54e5 | 9.03e5 | inactive |
| CG14540 | 3 | 1.06e6 | 8.51e5 | 2.10e6 | 1.62e6 | inactive |
| Pop4 | 1 | 2.00e5 | 1.99e5 | 2.13e6 | 1.27e6 | inactive |
| Pop4 | 2 | 3.83e5 | 2.94e5 | 7.95e5 | 8.87e5 | inactive |
| CG13926 | 1 | 71517 | 98161 | 1.24e6 | 1.21e6 | inactive |
| CG34462 | 1 | 1.31e5 | 1.73e5 | 1.91e6 | 1.39e6 | inactive |
| CG34462 | 2 | 9.15e5 | 1.11e6 | 8.63e5 | 1.05e6 | inactive |
| CG9962 | 1 | 86898 | 1.07e5 | 8.00e5 | 6.55e5 | inactive |
| CG9962 | 2 | 2.63e5 | 2.16e5 | 5.71e5 | 5.59e5 | inactive |
| CG30289 | 1 | 1.38e5 | 2.11e5 | 5.24e5 | 5.81e5 | inactive |
| CIAPIN1 | 1 | 5.63e5 | 7.06e5 | 1.50e6 | 1.52e6 | inactive |
| CIAPIN1 | 2 | 3.97e5 | 3.94e5 | 3.70e5 | 4.65e5 | inactive |
| CG11226 | 1 | 1.56e5 | 1.36e5 | 1.56e6 | 1.69e6 | inactive |
| mRpL40 | 1 | 2.08e5 | 1.92e5 | 2.60e6 | 3.17e6 | active |
| mRpL40 | 2 | 2.82e5 | 2.51e5 | 6.86e5 | 7.54e5 | inactive |
| CG2201 | 1 | 7.10e5 | 8.06e5 | 2.29e6 | 2.39e6 | inactive |
| CG2201 | 2 | – | – | – | – | inactive |
| Polr3D | 1 | 79961 | 26277 | 7.97e5 | 2.83e5 | inactive |
| Polr3D | 2 | 3.62e5 | 3.83e5 | 8.73e5 | 7.20e5 | inactive |
| nod | 1 | 4.06e5 | 4.13e5 | 6.99e5 | 4.04e5 | inactive |
| nod | 2 | 1.19e5 | 1.15e5 | 7.33e5 | 8.66e5 | inactive |
| PIP5K59B | 1 | 7.46e5 | 2.60e5 | 1.11e6 | 8.81e5 | inactive |
| PIP5K59B | 2 | 5.24e5 | 4.50e5 | 2.17e6 | 1.89e6 | inactive |
| PIP5K59B | 3 | – | – | – | – | inactive |
| PIP5K59B | 4 | – | – | – | – | inactive |
| CG10194 | 1 | 9.51e5 | 5.93e5 | 2.16e6 | 2.01e6 | inactive |
